This note sets out measurements from paper doi:10.1101/2025.09.22.677739.

Results are given in words; binding and its absence hold for the method and conditions named. For some assays here: In cells and extracts the contact can be indirect. Some entries that bind do so weakly or less than the wild type. For some assays here: Tags and fused reporters may be left off the sequences shown.

In experiment [1] the target is T1, YFP-tagged UVR8 (35S::YFP–UVR8 in uvr8-6) (Arabidopsis thaliana) (UniProt Q9FN03).
T1 sequence: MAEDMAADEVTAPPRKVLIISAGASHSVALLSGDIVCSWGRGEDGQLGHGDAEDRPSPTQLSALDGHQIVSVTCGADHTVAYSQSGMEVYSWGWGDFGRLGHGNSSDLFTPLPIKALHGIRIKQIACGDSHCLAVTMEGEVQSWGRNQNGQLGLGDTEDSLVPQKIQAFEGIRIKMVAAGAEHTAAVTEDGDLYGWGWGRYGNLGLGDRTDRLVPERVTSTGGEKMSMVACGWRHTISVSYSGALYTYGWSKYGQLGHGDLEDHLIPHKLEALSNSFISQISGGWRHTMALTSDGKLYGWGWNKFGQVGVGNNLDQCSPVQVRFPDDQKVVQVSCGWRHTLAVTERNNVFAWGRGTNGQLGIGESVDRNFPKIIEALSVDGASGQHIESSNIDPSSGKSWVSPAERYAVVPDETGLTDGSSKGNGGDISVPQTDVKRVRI
Kind of experiment: co-IP.

Experiment [2] has as its target T2, HY5 in the co-immunoprecipitation with HOS1 (Supplementary Fig. 4,5) (Arabidopsis thaliana) (UniProt O24646).
T2 sequence: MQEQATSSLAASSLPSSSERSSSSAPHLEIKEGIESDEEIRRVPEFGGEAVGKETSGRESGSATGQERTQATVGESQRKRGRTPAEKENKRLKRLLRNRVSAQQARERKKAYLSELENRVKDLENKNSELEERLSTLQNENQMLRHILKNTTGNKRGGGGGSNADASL
Kind of experiment: co-IP.

The target of experiment [3] is T3, COP1 in the co-immunoprecipitation with HOS1 (Supplementary Fig. 4,5) (Arabidopsis thaliana) (UniProt P43254).
T3 sequence: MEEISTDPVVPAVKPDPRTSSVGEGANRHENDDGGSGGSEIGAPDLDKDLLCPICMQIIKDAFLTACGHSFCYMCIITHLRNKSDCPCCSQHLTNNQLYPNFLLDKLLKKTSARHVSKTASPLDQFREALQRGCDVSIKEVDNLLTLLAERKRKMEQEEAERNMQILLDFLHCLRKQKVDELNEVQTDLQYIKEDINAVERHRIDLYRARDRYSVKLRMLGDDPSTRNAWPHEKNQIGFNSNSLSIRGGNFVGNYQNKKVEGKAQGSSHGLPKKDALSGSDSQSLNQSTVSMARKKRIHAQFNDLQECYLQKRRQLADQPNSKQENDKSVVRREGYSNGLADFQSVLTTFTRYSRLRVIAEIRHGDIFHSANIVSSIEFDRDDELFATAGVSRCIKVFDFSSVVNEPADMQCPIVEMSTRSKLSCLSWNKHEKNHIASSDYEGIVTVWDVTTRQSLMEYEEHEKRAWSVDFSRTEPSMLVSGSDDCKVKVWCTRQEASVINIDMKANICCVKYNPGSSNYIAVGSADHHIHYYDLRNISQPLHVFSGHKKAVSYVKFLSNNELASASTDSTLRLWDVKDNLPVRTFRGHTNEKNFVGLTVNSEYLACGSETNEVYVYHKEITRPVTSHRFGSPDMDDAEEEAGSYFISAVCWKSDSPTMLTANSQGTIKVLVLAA
Kind of experiment: co-IP.

In experiment [4] the target is T4, ELONGATED HYPOCOTYL 5 (HY5), yeast two-hybrid fusion (Arabidopsis thaliana) (UniProt O24646).
T4 sequence: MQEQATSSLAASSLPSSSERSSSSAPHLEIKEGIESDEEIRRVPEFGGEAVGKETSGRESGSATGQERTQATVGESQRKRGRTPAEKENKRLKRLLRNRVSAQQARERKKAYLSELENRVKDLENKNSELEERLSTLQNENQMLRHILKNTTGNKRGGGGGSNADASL
Kind of experiment: two-hybrid.

Experiment [5] concerns the target T5, CONSTITUTIVE PHOTOMORPHOGENIC 1 (COP1), yeast two-hybrid fusion (Arabidopsis thaliana) (UniProt P43254).
T5 sequence: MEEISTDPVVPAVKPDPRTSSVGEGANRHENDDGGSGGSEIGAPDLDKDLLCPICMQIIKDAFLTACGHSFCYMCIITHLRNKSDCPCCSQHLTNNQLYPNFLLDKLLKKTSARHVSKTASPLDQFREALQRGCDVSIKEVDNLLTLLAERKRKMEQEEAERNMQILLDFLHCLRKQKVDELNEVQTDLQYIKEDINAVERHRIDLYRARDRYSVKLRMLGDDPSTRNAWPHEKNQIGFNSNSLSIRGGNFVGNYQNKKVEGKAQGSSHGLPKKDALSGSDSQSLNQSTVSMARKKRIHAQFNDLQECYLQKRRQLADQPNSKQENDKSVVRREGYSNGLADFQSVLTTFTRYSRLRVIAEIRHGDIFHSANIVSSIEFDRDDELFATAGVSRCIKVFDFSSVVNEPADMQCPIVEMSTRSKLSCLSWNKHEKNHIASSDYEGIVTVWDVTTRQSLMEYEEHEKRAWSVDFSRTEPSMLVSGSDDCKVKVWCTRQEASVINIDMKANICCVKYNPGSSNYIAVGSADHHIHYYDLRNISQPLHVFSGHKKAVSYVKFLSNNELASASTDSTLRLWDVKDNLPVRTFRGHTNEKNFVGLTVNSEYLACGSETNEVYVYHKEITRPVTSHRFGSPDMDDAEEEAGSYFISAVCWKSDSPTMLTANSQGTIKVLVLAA
Kind of experiment: two-hybrid.

B1: HOS1, endogenous in Arabidopsis seedlings (protein, UniProt Q84JU6 1-927)
chain: MDTREINGFASAARSISLPTQPNYSSKPVQEALKHLASINLRELCNEAKVERCRATRDLASCGRFVNYVLNPCGHASLCTECCQRCDVCPICRSTLPKFGDRLRLRLYYECVEAGLISRTHEEASQDSDEDEHQLAADVHRLYSLFDVAMNNNLISVVCHYITNVCMDETAVSSDPVIAFLLDEVVVKDWVKRTFRSTLAELQEIYNLETKEMQAWLDKLLRCSKQVAGICSVLEVMESAFKGSVSPQLQDVQTLRENIGKTKQHLDIMVWCIRHGFLDDVRSRYSNFTSWNALVGERKSNAVKRAWPDAVDQSSDCSVQSASLFIEDALENLEREPEYSQEIGADLEVGRLQKDKRSFLRSKIEGTSGSYPFENLRTAADMLFLHGGSDLVVAKQAIFLYYLFDRHWTTPEKYWKHTIDDFAATFGITRHSLLESFVFYLLDDHSEEALQEACRILPEICGPETYPKVAQVLLERDNPETALMVLRWSGRDGVSELVSIGEAVTALRVRVECGLLSEAFTYQRTLCLKVKENNLKNGAVKHASDDLDIWSWTEWMEILVNEFCCLSIRRNLVDRIIELPWNPDEEKYLHRCLLDSATDDPSSAVGSLLVVFYLQRYRYIQAYQVDLRLQKIEEAFVSDNQIGEEVMFRMRSQSHWRKELVDRAIDILPVIQQQQVRSGQFSEMEDASEGAKKSDLPDAPDMITSSVPFATTNSVFLQSANNARAREPVANNGSPFQPGHMIGNASHDLSHGRLFTNANRGQKSEVRSVTKNLKFGEMSTPFKDLNRARGNSQLQGKRTEESSPEVNVDRYIENNMSSPYLRRITANNPVTVKSSSNHLNGSSQKPESTFFGTRMQPDKDNFVDLDDPMDMSSSLKDNNNNVLATESRNNSGGLRWRSDETSDDEDELTSFGSMPVKGRRRRRFAAR
As to B1, the binding result in experiment [1] was “binds”.

B2: HOS1 in the co-immunoprecipitation with HY5 and COP1 (Supplementary Fig. 4,5) (protein, UniProt Q84JU6 1-927)
chain: MDTREINGFASAARSISLPTQPNYSSKPVQEALKHLASINLRELCNEAKVERCRATRDLASCGRFVNYVLNPCGHASLCTECCQRCDVCPICRSTLPKFGDRLRLRLYYECVEAGLISRTHEEASQDSDEDEHQLAADVHRLYSLFDVAMNNNLISVVCHYITNVCMDETAVSSDPVIAFLLDEVVVKDWVKRTFRSTLAELQEIYNLETKEMQAWLDKLLRCSKQVAGICSVLEVMESAFKGSVSPQLQDVQTLRENIGKTKQHLDIMVWCIRHGFLDDVRSRYSNFTSWNALVGERKSNAVKRAWPDAVDQSSDCSVQSASLFIEDALENLEREPEYSQEIGADLEVGRLQKDKRSFLRSKIEGTSGSYPFENLRTAADMLFLHGGSDLVVAKQAIFLYYLFDRHWTTPEKYWKHTIDDFAATFGITRHSLLESFVFYLLDDHSEEALQEACRILPEICGPETYPKVAQVLLERDNPETALMVLRWSGRDGVSELVSIGEAVTALRVRVECGLLSEAFTYQRTLCLKVKENNLKNGAVKHASDDLDIWSWTEWMEILVNEFCCLSIRRNLVDRIIELPWNPDEEKYLHRCLLDSATDDPSSAVGSLLVVFYLQRYRYIQAYQVDLRLQKIEEAFVSDNQIGEEVMFRMRSQSHWRKELVDRAIDILPVIQQQQVRSGQFSEMEDASEGAKKSDLPDAPDMITSSVPFATTNSVFLQSANNARAREPVANNGSPFQPGHMIGNASHDLSHGRLFTNANRGQKSEVRSVTKNLKFGEMSTPFKDLNRARGNSQLQGKRTEESSPEVNVDRYIENNMSSPYLRRITANNPVTVKSSSNHLNGSSQKPESTFFGTRMQPDKDNFVDLDDPMDMSSSLKDNNNNVLATESRNNSGGLRWRSDETSDDEDELTSFGSMPVKGRRRRRFAAR
Regarding B2, the binding entry in experiment [2] and in experiment [3] was “no binding” in each case.

B3: HIGH EXPRESSION OF OSMOTICALLY RESPONSIVE GENES 1 (HOS1), yeast two-hybrid fusion (protein, UniProt Q84JU6 1-927)
chain: MDTREINGFASAARSISLPTQPNYSSKPVQEALKHLASINLRELCNEAKVERCRATRDLASCGRFVNYVLNPCGHASLCTECCQRCDVCPICRSTLPKFGDRLRLRLYYECVEAGLISRTHEEASQDSDEDEHQLAADVHRLYSLFDVAMNNNLISVVCHYITNVCMDETAVSSDPVIAFLLDEVVVKDWVKRTFRSTLAELQEIYNLETKEMQAWLDKLLRCSKQVAGICSVLEVMESAFKGSVSPQLQDVQTLRENIGKTKQHLDIMVWCIRHGFLDDVRSRYSNFTSWNALVGERKSNAVKRAWPDAVDQSSDCSVQSASLFIEDALENLEREPEYSQEIGADLEVGRLQKDKRSFLRSKIEGTSGSYPFENLRTAADMLFLHGGSDLVVAKQAIFLYYLFDRHWTTPEKYWKHTIDDFAATFGITRHSLLESFVFYLLDDHSEEALQEACRILPEICGPETYPKVAQVLLERDNPETALMVLRWSGRDGVSELVSIGEAVTALRVRVECGLLSEAFTYQRTLCLKVKENNLKNGAVKHASDDLDIWSWTEWMEILVNEFCCLSIRRNLVDRIIELPWNPDEEKYLHRCLLDSATDDPSSAVGSLLVVFYLQRYRYIQAYQVDLRLQKIEEAFVSDNQIGEEVMFRMRSQSHWRKELVDRAIDILPVIQQQQVRSGQFSEMEDASEGAKKSDLPDAPDMITSSVPFATTNSVFLQSANNARAREPVANNGSPFQPGHMIGNASHDLSHGRLFTNANRGQKSEVRSVTKNLKFGEMSTPFKDLNRARGNSQLQGKRTEESSPEVNVDRYIENNMSSPYLRRITANNPVTVKSSSNHLNGSSQKPESTFFGTRMQPDKDNFVDLDDPMDMSSSLKDNNNNVLATESRNNSGGLRWRSDETSDDEDELTSFGSMPVKGRRRRRFAAR
Turning to B3, the binding entry in experiment [4] and in experiment [5] was “no binding” throughout.
